# Experimental data published in publication PMC12040169 (PLOS Biology, 2025).
# Some of the results follow.
# Tested on: T1, CTL2-GFP (C. trachomatis L2/434/Bu, GFP-expressing)
# T1 construct: L2/434/Bu, GFP-expressing
# Parameters: species or system HeLa; Intracellular C. trachomatis growth in HeLa cells, bulk GFP fluorescence relative to DMSO
# Settings: bulk GFP, single well; 28.5 h, 10 µM; inhibitor
row,SMILES,% of control remaining [%]
1,CC1CNCCN1C(=O)c1cnn(-c2cccc(Cl)c2)c1 (stereo not shown) [CBK304238],98.2572
2,Cc1cc(NS(=O)(=O)c2cnn(-c3ccccc3)c2C)n(C)n1 [CBK067252],106.227
3,Cc1oc2ccccc2c1CN(CCN(C)C)Cc1ccncc1 [CBK283097],121.93
4,O=C(NCc1c(O)c(Cl)cc(Cl)c1Cl)c1ccccc1 [CBK260920],89.6533
5,Cc1ccc(NC(=O)Cc2cn(C)c3ccccc23)c(C)n1 [CBK200298],125.436
6,CC(C)(C)c1cc(CN(Cc2cc(C(C)(C)C)c(O)c(C(C)(C)C)c2)/N=C\c2ccccc2O)cc(C(C)(C)C)c1O [CBK261990],107.215
7,CC(C)Nc1ncnc2scc(-c3cccs3)c12 [CBK017085],104.315
8,CC(=O)OC(COc1cccc(Cl)c1)Cn1cnc2cc(C)c(C)cc21 (stereo not shown) [CBK266152],161.143
9,Cc1ncsc1CCS(=O)(=O)N1CCOCC1c1cccc(F)c1 (stereo not shown) [CBK304254],107.203
10,CC(C)(C)OC(=O)N1CCC(Oc2cncc(Cl)n2)CC1 [CBK001762],100
11,Cc1ccc(S(=O)(=O)N=C2NCN(C)CN2)cc1 [CBK261972],127.638
12,CC(=O)N1c2ccccc2C(C)=CC1C1CCCC(=O)C1 (stereo not shown) [CBK007219],124.385
13,O=C(Nc1cc(Oc2ccc(Cl)cc2)cc([N+](=O)[O-])c1)c1cnn2c(C(F)F)cc(C3CC3)nc12 [CBK268925],167.819
14,Cc1cc(C)c(OCC(=O)Nc2cc(-c3nc4ncccc4o3)ccc2C)c(Cl)c1 [CBK072887],108.466
15,Cc1sc(C(N)=O)cc1[N+](=O)[O-] [CBK066863],125.945
16,COc1ccc2oc(=O)c(C(=O)Nc3cccc(O)c3)cc2c1 [CBK270070],174.336
17,CCOc1cccc(CN2CCCCC2c2[nH]ncc2C(N)=O)n1 (stereo not shown) [CBK304750],117.742
18,CC(N)C1CCCN(S(=O)(=O)c2ccc(OCc3ncnn3C)cc2)C1 (stereo not shown) [CBK304105],102.438
19,C/C=C/c1ccc(OCCCSc2nc(C)cc(O)n2)c(OC)c1 [CBK267413],149.374
20,c1ccc(-c2nnc3ccccc3c2N2CCNCC2)cc1 [CBK066888],0
21,CN1CCC[C@H]1COc1ncccc1OCCO [CBK042185],150.549
22,Cc1ccccc1OCC(=O)NCc1ccc(C(=O)O)cc1 [CBK287155],102.988
23,O=C1CCC(=O)N1CCOc1nccnc1OC1CCN(CCc2ccc3ccccc3c2)CC1 [CBK084358],116.649
24,Cn1cc(C(c2ccc(OCC(=O)O)cc2)c2cn(C)c3ccccc23)c2ccccc21 [CBK266403],18.7257
25,CCc1nn(Cc2ccccn2)c(=O)c2cc3sc(C)cc3n12 [CBK284113],157.578
26,CNC(=O)C1(Cc2ccc(-c3ccccc3)cc2)CCN(C(=O)C2CCCCC2)CC1 [CBK285762],113.251

# Gathered by group, the entries above with a nitro group on carbon (two)
row,SMILES,% of control remaining [%]
13,O=C(Nc1cc(Oc2ccc(Cl)cc2)cc([N+](=O)[O-])c1)c1cnn2c(C(F)F)cc(C3CC3)nc12 [CBK268925],167.819
15,Cc1sc(C(N)=O)cc1[N+](=O)[O-] [CBK066863],125.945

# Following part:

row,SMILES,% of control remaining [%]
1,Cc1nnc([C@H]2CCN(Cc3ccc4c(c3)OCO4)C2)o1 [CBK289392],121.233
2,Cc1cc(=O)oc2cc(Sc3sccc3[N+](=O)[O-])ccc12 [CBK002936],133.656
3,CNC(=O)c1ccc(-c2cc(C)cs2)nc1N(C)C [CBK106150],120.7
4,O=C(NC1CCN(Cc2c(F)cccc2Cl)CC1)C1CCN(C(=O)OCc2ccccc2)CC1 [CBK074720],77.1222
5,FC(F)(F)c1cnc(Oc2ccc(-n3ccnc3)cc2)c(Cl)c1 [CBK161625],99.2831
6,COc1ccc(Br)cc1S(=O)(=O)Nc1cccc(C(=O)Nc2ccc(F)cc2)c1 [CBK038981],102.151
7,Cc1csc2c(N3CCSCC3)ncnc12 [CBK009169],120.363
8,COc1ccc(C)cc1N(C(=O)c1ccccn1)c1nc2ccccc2s1 [CBK297944],104.959
9,COc1ccc(-c2cncc(N3CCCC3CO)n2)cc1 (stereo not shown) [CBK037223],126.481
10,CC(C)(C)OC(=O)N1CCC(COc2ccc(-c3ccc(S(C)(=O)=O)cc3)nc2)CC1 [CBK167839],120.7
11,CCS(=O)(=O)Nc1cc([N+](=O)[O-])ccc1OC [CBK111343],58.486
12,CCCS(=O)(=O)Nc1nccnc1-c1ccc(Oc2ccccc2)cc1 [CBK050908],110.022
13,COc1ccc(CNc2nccs2)c(O)c1 [CBK265690],135.705
14,Cc1ccc(-c2c(N3C(=O)c4cccnc4C3=O)n[nH]c2C)cc1 [CBK288199],121.434
15,Cc1cc2[nH]c(=O)oc2cc1S(=O)(=O)NCCN1CCCCC1CO (stereo not shown) [CBK307307],141.002
16,CCn1cc(C2CN(S(=O)(=O)c3ccc(F)c(C)c3)CCO2)cn1 (stereo not shown) [CBK305419],103.029
17,O=C(C1CCCC1)N1CCCC1c1nc2ccccc2[nH]1 (stereo not shown) [CBK282378],159.372
18,OCc1nc(-c2cccnc2)co1 [CBK018811],101.266
19,COc1ccc2cc(Br)ccc2c1CC(=O)Nc1ccccc1[N+](=O)[O-] [CBK268823],182.367
20,O=S(=O)(Nc1ccccc1)c1ccccc1I [CBK057566],88.8689
21,Cc1cc(=O)oc2cc(SCc3ccc(Cl)s3)ccc12 [CBK002898],98.6348
22,CC(C)(C)C(=O)CSc1nnc(-c2ccccc2)n1Cc1ccccc1 [CBK264960],120.162
23,CCC(NC(=O)c1ccc(C(C)(C)C)[nH]c1=O)c1ccc(OC)cc1 (stereo not shown) [CBK282940],113.054
24,CC1(C)SC(NCC2CCCCC2)=NC1=O [CBK067808],135.486
25,CCN(CC)C(=O)CN1CCC(c2ccccc2F)CC1 [CBK283549],105.953
26,O=C(Cn1nnc2ccccc21)N/N=C\c1cccc(Cl)c1Cl [CBK262931],104.212
